The record followed here is paper PMC9839851.

Protein sequences, listed by entry. Tags and fused reporters are not part of them. Lines headed by an entry give the natural chain unless they say otherwise; changes in a name come on top.
UniProt Q9WTL8: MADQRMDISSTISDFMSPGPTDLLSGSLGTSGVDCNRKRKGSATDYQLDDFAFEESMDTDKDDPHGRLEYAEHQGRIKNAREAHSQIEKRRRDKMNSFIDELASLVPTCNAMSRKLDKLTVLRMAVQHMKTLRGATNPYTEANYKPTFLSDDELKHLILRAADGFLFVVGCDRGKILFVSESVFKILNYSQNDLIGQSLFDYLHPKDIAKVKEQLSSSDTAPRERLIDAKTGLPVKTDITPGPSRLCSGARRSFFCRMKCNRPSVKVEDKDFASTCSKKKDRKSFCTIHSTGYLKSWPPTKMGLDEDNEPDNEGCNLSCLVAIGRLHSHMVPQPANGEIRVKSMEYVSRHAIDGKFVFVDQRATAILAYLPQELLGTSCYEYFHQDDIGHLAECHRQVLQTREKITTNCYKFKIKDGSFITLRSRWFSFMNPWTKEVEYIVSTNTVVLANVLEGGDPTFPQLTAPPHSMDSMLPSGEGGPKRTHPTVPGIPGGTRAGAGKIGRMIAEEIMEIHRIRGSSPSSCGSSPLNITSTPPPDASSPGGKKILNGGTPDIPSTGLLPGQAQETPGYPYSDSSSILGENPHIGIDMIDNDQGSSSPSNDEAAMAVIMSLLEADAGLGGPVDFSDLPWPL
UniProt P03953: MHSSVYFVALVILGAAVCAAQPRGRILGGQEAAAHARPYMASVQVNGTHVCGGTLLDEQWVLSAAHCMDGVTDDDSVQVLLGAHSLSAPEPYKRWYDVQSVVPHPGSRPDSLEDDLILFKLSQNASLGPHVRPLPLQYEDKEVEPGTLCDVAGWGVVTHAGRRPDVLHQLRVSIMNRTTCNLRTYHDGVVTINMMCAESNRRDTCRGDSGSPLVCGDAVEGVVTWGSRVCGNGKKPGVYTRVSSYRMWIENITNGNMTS

These are yes or no findings as the source states them, for the method shown. In cells and extracts the contact can be indirect. Binding can be weak; no strength is given.

This assay deals with BMAL1 (mouse (endogenous in eWAT)) (UniProt Q9WTL8). Put plainly: co-IP; mouse eWAT homogenised in IP buffer (1x TBS, 1% triton, 10% glycerol); anti-BMAL1 immunoprecipitation overnight at 4 °C; Western blot for adipsin.

Regarding adipsin (from UniProt P03953), the binding result is “binds”.
